# Some results were stated once for a whole list of compounds, not compound by compound.
# Test system: human sperm in semen
# Assay: CASA time course of sperm motility in semen with components of GM-144
# Type: cell-based
# Conditions: after 60 min of exposure
smiles,measurement,value
"CC(O)CO (stereo not shown) [propylene glycol, propane-1,2-diol]",Progressive sperm motility,> 30%

# From patent publication US7064114B2, “Gel-microemulsion formulations” (priority 1999, dated 2006)
